No constants are given. Whether binding was seen depends on the method and setting. In cells and extracts the contact can be indirect. Here binding means that the protein was enriched with, or labelled near, the bait; the list need not be complete.
Target: Flag-pVHL (UniProt P40337)
Assay: affinity purification with mass spectrometry; Flag pull-down from HEK293T cells transfected with empty or Flag-pVHL vector for 24 hours; gradient gel, silver staining, bands excised for MS (LTQ Orbitrap Elite)

By UniProt entry, the sequences of proteins in these tests, tags left out.
UniProt P40337: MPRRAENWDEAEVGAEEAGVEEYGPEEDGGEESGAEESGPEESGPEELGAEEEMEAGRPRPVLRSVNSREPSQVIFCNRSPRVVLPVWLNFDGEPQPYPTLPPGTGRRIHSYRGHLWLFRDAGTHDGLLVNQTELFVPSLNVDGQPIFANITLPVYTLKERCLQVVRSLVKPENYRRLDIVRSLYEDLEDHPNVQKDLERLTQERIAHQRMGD
UniProt Q7Z6Z7: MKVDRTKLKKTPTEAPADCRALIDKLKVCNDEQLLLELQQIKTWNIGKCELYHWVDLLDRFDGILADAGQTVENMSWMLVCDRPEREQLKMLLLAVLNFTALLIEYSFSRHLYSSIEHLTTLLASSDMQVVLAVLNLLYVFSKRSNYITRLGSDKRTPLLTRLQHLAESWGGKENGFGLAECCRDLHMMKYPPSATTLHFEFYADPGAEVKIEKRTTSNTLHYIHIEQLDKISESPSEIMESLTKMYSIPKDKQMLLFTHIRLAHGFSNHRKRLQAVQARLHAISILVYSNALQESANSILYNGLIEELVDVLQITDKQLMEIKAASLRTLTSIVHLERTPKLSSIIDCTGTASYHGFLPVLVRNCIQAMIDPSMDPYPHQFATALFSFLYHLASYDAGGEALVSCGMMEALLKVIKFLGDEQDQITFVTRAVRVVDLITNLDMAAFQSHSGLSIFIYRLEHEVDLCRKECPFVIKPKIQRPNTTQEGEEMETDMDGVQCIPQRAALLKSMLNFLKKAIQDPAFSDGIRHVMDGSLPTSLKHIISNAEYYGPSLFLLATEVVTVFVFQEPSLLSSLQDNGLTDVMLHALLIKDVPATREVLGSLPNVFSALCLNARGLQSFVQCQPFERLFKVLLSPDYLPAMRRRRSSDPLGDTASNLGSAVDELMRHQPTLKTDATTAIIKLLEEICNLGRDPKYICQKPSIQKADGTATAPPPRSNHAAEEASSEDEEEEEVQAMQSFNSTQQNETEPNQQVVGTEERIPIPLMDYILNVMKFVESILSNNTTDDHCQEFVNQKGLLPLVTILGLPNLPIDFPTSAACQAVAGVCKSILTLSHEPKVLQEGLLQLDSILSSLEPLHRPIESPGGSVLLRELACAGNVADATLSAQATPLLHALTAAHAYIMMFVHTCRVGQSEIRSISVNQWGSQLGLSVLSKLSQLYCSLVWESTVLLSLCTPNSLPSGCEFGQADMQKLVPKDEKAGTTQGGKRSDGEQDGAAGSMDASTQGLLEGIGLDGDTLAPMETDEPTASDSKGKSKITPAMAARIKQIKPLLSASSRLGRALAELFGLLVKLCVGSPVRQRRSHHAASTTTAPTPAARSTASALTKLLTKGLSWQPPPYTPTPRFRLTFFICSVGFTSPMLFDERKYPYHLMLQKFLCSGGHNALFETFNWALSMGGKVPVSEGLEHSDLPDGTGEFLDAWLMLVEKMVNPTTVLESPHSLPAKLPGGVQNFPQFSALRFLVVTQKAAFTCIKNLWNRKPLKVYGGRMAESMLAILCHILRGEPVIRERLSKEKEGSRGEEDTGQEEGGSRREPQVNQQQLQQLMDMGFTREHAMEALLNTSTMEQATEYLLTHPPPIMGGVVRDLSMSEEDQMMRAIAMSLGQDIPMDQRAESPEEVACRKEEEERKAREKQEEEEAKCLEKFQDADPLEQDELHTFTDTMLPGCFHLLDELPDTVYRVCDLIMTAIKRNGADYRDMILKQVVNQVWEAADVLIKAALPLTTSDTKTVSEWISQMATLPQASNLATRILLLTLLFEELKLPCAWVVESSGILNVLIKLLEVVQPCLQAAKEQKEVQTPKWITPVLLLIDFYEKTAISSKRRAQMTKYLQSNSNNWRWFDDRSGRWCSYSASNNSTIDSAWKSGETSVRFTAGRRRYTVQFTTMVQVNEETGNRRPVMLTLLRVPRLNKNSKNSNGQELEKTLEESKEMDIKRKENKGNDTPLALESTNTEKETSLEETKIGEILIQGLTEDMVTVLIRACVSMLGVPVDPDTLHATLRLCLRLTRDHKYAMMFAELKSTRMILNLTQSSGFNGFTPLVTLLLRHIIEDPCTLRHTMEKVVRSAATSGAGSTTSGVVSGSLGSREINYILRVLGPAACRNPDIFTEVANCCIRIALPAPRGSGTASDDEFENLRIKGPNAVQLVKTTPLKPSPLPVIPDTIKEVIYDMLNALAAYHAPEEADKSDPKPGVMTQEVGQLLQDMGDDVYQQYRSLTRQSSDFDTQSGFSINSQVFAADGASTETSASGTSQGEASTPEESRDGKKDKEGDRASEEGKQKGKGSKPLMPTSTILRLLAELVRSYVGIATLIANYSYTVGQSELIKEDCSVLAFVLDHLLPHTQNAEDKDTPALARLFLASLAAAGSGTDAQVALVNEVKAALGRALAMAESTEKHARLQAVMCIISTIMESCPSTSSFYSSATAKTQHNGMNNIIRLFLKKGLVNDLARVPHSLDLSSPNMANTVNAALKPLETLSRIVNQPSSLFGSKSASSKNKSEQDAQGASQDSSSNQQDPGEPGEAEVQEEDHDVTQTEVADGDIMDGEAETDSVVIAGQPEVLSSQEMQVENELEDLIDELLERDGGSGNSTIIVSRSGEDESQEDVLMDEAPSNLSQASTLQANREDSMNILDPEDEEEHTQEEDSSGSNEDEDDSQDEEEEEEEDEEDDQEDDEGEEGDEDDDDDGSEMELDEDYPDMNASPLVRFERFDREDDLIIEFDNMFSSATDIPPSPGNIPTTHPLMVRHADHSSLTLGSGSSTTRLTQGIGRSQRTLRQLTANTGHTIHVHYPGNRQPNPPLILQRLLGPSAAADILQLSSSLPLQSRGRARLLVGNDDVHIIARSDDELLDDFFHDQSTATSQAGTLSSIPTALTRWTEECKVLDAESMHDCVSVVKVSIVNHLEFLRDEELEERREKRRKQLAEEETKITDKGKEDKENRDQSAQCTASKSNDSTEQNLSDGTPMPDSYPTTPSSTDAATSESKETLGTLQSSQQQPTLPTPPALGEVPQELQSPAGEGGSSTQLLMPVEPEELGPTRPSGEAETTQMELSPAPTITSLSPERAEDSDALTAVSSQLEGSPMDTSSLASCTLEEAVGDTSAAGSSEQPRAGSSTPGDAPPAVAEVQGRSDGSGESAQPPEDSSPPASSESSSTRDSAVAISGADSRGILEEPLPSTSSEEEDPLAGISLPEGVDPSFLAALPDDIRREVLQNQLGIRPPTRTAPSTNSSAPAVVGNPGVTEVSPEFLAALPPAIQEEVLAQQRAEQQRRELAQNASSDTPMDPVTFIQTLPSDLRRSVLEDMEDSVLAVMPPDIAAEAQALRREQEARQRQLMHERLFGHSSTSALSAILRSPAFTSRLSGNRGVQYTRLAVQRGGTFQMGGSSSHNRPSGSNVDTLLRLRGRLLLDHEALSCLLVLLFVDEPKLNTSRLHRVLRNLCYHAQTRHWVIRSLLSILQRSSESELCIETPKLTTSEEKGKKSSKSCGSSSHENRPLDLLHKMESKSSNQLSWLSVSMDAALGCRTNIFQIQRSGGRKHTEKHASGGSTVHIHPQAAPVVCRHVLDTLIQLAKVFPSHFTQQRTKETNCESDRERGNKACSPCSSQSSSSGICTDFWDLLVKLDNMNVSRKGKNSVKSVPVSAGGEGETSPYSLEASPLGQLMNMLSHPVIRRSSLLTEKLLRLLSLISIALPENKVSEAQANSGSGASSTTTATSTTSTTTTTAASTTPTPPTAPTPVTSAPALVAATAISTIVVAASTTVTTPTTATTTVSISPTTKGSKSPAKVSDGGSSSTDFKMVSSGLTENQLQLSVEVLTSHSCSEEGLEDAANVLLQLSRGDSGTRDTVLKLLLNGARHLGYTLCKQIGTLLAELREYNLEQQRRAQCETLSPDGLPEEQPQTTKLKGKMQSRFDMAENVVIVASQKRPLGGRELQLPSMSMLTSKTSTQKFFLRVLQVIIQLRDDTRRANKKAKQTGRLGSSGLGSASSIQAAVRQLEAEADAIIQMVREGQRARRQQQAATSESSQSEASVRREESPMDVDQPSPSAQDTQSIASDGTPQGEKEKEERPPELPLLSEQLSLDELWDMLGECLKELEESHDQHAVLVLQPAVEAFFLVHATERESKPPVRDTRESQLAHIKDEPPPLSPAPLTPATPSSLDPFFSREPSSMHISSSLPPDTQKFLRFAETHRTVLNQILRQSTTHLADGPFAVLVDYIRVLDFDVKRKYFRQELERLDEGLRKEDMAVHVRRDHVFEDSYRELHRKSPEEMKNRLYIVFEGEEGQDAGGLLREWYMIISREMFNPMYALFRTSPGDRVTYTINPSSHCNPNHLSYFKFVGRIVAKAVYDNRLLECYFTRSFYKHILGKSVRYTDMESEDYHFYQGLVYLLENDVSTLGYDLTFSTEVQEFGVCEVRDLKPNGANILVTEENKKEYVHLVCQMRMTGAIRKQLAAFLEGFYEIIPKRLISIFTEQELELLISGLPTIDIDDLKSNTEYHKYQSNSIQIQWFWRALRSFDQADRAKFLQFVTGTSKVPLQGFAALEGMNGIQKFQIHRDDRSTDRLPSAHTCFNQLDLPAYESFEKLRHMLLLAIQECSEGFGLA

| binding | Substance |
| --- | --- |
| binds | endogenous HUWE1 (HEK293T) (from UniProt Q7Z6Z7 1-4374) (enzyme) |
| binds | endogenous USP9X (from UniProt Q93008 1-2554) (enzyme) |
